# The supplement of paper PMC6411743
# The chains behind the UniProt entries cited, without tags or fusion partners. Where a name states a change or a piece, a line headed by the entry shows the natural chain unless it says otherwise.
# UniProt Q86Y39: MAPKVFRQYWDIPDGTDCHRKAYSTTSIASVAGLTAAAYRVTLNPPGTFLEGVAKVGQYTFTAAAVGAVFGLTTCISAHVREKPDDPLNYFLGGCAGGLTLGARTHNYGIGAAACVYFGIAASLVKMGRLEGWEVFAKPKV
# UniProt Q08117: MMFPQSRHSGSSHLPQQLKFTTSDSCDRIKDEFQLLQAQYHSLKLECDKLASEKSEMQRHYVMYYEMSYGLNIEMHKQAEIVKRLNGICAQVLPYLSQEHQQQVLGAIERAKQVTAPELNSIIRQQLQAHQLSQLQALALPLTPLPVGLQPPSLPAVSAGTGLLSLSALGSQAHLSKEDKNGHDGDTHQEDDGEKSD
# UniProt P55039: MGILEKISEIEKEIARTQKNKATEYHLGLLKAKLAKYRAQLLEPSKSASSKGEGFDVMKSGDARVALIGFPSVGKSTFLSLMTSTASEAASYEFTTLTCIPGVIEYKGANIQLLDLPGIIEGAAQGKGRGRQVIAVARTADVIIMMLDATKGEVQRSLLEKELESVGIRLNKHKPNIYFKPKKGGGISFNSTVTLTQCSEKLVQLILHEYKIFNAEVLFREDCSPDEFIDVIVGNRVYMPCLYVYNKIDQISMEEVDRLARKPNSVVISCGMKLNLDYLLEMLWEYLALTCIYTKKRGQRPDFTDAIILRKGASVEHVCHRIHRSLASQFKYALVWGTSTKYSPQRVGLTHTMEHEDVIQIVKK
# UniProt Q86W74: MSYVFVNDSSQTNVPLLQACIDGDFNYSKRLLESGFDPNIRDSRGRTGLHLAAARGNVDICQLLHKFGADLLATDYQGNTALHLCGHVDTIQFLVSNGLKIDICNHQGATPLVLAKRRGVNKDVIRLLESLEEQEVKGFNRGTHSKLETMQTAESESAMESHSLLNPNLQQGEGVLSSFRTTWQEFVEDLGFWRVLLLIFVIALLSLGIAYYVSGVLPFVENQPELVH
# UniProt O14893: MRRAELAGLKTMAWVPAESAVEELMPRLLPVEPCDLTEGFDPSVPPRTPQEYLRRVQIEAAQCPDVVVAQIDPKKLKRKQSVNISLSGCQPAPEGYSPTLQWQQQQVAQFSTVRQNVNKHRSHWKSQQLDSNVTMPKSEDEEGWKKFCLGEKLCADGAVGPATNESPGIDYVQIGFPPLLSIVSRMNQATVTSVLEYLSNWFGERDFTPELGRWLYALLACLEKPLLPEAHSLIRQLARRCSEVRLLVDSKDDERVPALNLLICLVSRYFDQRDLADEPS
# UniProt Q6AI12: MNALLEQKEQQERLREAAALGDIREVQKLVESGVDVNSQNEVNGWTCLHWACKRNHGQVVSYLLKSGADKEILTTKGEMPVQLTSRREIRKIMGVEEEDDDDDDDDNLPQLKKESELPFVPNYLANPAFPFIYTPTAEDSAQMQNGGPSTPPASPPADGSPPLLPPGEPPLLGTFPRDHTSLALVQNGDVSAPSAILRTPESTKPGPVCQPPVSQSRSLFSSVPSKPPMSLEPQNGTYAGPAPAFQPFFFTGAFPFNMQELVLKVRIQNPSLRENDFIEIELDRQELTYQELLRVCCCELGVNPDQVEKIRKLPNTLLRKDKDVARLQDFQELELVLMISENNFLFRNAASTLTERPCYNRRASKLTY
# UniProt Q7Z6Z7, whole entry: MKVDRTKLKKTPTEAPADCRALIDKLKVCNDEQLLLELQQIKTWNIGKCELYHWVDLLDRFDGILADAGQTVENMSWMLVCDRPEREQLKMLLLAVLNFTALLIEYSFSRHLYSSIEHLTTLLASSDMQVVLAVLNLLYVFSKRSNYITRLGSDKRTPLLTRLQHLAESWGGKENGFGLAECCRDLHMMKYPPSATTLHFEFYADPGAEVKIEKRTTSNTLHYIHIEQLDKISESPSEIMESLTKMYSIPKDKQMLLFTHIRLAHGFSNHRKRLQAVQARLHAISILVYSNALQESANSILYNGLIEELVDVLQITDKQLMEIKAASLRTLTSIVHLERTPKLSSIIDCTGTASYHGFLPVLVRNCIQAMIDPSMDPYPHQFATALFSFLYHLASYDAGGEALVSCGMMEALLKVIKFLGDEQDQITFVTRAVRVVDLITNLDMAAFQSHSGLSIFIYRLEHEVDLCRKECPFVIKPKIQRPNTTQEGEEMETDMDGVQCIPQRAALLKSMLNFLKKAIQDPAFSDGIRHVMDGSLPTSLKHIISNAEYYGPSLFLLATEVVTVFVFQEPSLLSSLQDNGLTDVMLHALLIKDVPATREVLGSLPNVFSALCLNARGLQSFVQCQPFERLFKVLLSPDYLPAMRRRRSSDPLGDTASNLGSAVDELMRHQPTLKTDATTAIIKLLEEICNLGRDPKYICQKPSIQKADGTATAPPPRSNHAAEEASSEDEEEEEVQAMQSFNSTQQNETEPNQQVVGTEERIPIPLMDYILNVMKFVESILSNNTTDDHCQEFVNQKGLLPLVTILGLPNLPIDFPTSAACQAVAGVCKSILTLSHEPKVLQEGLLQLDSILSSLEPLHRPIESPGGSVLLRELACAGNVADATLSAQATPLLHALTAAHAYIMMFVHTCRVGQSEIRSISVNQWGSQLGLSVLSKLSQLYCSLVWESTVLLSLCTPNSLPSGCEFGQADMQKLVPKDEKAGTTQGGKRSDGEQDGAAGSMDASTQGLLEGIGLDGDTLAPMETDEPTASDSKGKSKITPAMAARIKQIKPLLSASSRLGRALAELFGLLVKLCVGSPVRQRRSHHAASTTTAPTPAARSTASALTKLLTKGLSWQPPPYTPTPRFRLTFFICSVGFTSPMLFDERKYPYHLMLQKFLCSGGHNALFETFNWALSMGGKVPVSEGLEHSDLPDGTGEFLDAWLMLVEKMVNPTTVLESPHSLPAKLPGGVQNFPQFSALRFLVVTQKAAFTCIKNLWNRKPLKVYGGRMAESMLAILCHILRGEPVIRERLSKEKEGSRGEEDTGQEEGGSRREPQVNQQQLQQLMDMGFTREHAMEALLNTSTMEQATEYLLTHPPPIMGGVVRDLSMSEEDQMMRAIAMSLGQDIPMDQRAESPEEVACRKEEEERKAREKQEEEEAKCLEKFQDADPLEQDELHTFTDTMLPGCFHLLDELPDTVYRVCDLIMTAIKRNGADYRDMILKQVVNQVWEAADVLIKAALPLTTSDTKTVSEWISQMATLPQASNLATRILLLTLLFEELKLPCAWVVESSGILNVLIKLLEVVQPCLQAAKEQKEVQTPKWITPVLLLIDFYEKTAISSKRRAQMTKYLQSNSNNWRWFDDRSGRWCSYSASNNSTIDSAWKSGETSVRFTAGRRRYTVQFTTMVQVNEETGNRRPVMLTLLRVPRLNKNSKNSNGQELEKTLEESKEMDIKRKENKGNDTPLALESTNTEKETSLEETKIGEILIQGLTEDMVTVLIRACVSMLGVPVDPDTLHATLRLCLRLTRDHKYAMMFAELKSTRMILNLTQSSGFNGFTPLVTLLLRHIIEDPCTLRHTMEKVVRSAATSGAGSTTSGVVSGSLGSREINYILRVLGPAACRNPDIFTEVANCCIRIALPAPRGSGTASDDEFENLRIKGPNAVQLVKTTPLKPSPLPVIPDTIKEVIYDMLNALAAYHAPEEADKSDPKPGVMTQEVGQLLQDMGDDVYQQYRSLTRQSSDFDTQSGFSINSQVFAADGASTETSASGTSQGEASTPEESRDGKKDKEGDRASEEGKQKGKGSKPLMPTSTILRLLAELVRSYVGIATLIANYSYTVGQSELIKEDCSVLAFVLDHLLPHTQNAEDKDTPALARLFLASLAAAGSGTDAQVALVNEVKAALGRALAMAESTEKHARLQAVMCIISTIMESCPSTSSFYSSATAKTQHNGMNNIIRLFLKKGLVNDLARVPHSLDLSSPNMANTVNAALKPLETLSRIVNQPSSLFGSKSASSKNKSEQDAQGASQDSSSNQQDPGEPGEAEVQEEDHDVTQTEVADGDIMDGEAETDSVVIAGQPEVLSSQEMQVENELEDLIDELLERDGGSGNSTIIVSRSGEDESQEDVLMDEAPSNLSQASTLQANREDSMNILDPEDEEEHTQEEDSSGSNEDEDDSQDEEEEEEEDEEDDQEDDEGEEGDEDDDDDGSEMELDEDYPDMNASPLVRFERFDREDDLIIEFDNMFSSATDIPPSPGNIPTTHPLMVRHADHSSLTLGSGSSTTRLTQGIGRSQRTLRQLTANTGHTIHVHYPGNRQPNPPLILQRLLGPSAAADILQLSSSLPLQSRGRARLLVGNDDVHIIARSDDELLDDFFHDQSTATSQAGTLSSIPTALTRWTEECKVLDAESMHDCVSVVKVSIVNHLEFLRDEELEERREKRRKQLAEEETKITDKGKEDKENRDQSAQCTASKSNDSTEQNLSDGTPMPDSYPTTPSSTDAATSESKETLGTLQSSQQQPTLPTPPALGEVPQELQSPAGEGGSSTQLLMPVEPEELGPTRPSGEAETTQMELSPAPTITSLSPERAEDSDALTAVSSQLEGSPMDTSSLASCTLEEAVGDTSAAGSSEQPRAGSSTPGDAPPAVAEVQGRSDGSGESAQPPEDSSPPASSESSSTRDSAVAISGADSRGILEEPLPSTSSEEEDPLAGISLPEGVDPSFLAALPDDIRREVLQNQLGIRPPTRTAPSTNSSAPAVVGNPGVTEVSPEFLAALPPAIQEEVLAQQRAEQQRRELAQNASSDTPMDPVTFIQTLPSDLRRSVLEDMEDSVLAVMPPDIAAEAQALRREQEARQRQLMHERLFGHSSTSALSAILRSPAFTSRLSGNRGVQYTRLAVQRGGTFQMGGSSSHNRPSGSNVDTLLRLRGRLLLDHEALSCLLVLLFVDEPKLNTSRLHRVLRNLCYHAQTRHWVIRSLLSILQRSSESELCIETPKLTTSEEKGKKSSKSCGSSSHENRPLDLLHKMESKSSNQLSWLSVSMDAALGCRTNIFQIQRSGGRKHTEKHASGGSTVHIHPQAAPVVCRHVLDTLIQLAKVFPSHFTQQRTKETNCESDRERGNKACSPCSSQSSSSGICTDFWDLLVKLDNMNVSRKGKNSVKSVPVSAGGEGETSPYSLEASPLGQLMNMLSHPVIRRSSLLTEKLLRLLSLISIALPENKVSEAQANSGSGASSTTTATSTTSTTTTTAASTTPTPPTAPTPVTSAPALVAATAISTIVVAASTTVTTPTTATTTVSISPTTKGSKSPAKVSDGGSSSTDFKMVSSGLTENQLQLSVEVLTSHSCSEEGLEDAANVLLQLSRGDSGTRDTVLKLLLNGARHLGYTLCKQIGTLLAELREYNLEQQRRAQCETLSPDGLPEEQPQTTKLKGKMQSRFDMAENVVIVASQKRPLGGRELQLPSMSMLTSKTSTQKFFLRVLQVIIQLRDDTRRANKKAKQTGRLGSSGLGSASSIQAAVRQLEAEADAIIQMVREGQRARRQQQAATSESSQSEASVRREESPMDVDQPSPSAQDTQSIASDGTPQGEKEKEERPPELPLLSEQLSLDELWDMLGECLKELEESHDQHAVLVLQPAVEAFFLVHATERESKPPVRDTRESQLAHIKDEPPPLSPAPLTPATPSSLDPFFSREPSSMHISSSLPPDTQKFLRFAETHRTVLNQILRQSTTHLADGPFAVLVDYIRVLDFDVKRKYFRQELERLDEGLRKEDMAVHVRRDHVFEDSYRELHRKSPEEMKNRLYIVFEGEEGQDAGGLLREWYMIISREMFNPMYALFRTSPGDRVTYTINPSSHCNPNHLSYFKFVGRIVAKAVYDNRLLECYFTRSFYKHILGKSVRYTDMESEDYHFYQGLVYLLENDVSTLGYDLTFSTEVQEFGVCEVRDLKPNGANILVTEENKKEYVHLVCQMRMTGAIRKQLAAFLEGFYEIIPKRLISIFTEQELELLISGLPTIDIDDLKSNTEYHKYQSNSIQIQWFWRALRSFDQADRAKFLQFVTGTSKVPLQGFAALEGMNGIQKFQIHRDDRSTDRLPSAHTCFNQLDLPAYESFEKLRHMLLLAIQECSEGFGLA
# UniProt Q9NP81: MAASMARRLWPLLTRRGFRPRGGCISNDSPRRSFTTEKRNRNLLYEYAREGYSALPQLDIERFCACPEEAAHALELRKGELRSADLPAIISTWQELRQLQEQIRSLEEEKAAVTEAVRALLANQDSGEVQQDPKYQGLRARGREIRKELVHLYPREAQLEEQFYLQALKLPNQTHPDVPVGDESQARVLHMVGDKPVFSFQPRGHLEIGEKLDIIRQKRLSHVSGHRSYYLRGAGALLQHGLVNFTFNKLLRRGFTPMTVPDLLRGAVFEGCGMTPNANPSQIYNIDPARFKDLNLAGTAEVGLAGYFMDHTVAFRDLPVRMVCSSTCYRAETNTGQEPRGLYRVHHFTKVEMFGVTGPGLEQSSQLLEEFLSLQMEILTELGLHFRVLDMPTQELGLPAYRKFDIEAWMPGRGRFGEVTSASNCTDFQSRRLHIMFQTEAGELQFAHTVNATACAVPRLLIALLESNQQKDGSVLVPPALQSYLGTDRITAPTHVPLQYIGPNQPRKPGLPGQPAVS
# ± gives the standard deviation of the averaged measurements. The list shows a part of the results, in another mix than the full data.
# Compound: Nc1ncnc2c1ncn2[C@@H]1O[C@H](COP(=O)(O)OP(=O)(O)OP(=O)(O)O)[C@@H](O)[C@H]1O [adenosine triphosphate]
# Assay: NP40-soluble protein abundance relative to vehicle (solubility fold change) (ratio); higher = more soluble protein in presence of ATP
# Procedure, shortened: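 Jurkat crude lysate prepared with a Dounce homogeniser was treated at eight concentrations spanning 0.1 to 10 mM, 10 min at room temperature then 3 min at 37 °C. Solubilisation with 0.8% NP40 and benzonase and ultracentrifugation preceded TMT labelling of the supernatant for LC-MS/MS. Fold change against the detergent-processed vehicle was determined per replicate from vsn-normalised intensities, across three independent experiments.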
Target,NP40-soluble protein abundance (concentration: 1mM),NP40-soluble protein abundance (concentration: 2mM),NP40-soluble protein abundance (concentration: 4mM),NP40-soluble protein abundance (concentration: 6mM),NP40-soluble protein abundance (concentration: 8mM),NP40-soluble protein abundance (concentration: 10mM)
K7EQ55 and related entries (UniProt Q96EP5),0.972 ± 0.047,1.01 ± 0.023,0.981 ± 0.033,0.979 ± 0.033,0.956 ± 0.03,0.9699 ± 0.0081
H0Y9S9 and related entries (UniProt O43314),0.983 ± 0.018,0.992 ± 0.046,0.988 ± 0.036,0.978 ± 0.044,1 ± 0.045,0.984 ± 0.038
G5EA30 and related entries (UniProt Q92879),0.945 ± 0.015,0.996 ± 0.058,0.9471 ± 0.0078,0.969 ± 0.014,0.923 ± 0.022,0.96 ± 0.021
H0Y2S9 and related entries (UniProt Q6WCQ1),1.19 ± 0.049,1.24 ± 0.017,1.366 ± 0.0052,1.38 ± 0.08,1.35 ± 0.059,1.41 ± 0.058
J3KQN4 and related entries (UniProt P83881),0.8462 ± 0.0032,0.845 ± 0.09,0.798 ± 0.095,0.74 ± 0.084,0.7211 ± 0.0045,0.847 ± 0.074
J3KNF5 and related entries (UniProt O15078),0.986 ± 0.02,0.934 ± 0.031,0.997 ± 0.053,1 ± 0.027,1.04 ± 0.046,0.993 ± 0.067
G5E9C2 and related entries (UniProt Q15653),0.983 ± 0.061,0.982 ± 0.032,0.969 ± 0.011,0.985 ± 0.025,0.9606 ± 0.003,0.967 ± 0.016
K7EK78 and related entries (UniProt Q86Y39+K7EQ77+K7EP35+K7EMT4+K7EK78),1.22 ± 0.33,1.22 ± 0.17,1.14 ± 0.34,1.29 ± 0.26,1.14 ± 0.1,1.13 ± 0.25
K7ELE3 and related entries (UniProt Q08117),0.928 ± 0.071,0.916 ± 0.11,1.01 ± 0.064,0.972 ± 0.07,0.883 ± 0.042,0.89 ± 0.089
J3KPC5 and related entries (UniProt P47736),0.924 ± 0.074,0.877 ± 0.057,0.881 ± 0.038,0.855 ± 0.066,0.849 ± 0.088,0.828 ± 0.082
J3QRS3 and related entries (UniProt P19105+O14950+J3QRS3),0.966 ± 0.1,0.917 ± 0.071,0.875 ± 0.08,0.927 ± 0.11,0.877 ± 0.033,0.76 ± 0.089
I3L1K6 and related entries (UniProt P12829),0.984 ± 0.15,0.977 ± 0.13,0.999 ± 0.17,1.02 ± 0.21,0.969 ± 0.13,0.899 ± 0.092
H7C3X7 and related entries (UniProt Q2T9K0),1.04 ± 0.13,0.999 ± 0.13,1.12 ± 0.069,0.984 ± 0.19,0.914 ± 0.097,0.985 ± 0.3
I3VM54 and related entries (UniProt Q9Y2K7),1.23 ± 0.031,1.298 ± 0.011,1.42 ± 0.029,1.51 ± 0.049,1.536 ± 0.009,1.6 ± 0.046
H7BYF2 and related entries (UniProt Q9BVL2),0.915 ± 0.084,0.94 ± 0.018,0.955 ± 0.057,1.01 ± 0.073,0.932 ± 0.058,0.933 ± 0.025
J3QKV7 and related entries (UniProt P55039),1.05 ± 0.096,1.02 ± 0.096,1.04 ± 0.076,0.984 ± 0.13,1.05 ± 0.11,1 ± 0.04
H3BPE7 and related entries (UniProt P35637),1.01 ± 0.13,1.11 ± 0.076,1.1 ± 0.11,1.23 ± 0.15,1.24 ± 0.066,1.18 ± 0.096
K7ER95 and related entries (UniProt Q92918),1.02 ± 0.021,1.02 ± 0.025,1.01 ± 0.029,0.962 ± 0.055,1 ± 0.02,1.012 ± 0.009
G5E9V6 and related entries (UniProt Q8IUR7),0.983 ± 0.04,0.927 ± 0.012,0.938 ± 0.023,0.887 ± 0.065,0.951 ± 0.051,0.953 ± 0.063
J3KPC8 and related entries (UniProt Q9Y2K2),1 ± 0.085,1.05 ± 0.1,1.08 ± 0.078,1.01 ± 0.076,1.03 ± 0.12,1.02 ± 0.11
J3KMZ7 and related entries (UniProt Q9H0H0),1.1 ± 0.082,1.04 ± 0.13,1.09 ± 0.12,1.09 ± 0.2,1.11 ± 0.18,1.18 ± 0.18
J3KNQ1 and related entries (UniProt Q6P2D0),0.988 ± 0.073,0.999 ± 0.098,1.01 ± 0.088,1 ± 0.15,0.914 ± 0.033,1 ± 0.14
J3KP26 and related entries (UniProt Q86W74),0.971 ± 0.099,1.02 ± 0.12,0.996 ± 0.054,0.975 ± 0.1,1 ± 0.14,0.988 ± 0.054

Target,NP40-soluble protein abundance (concentration: 1mM),NP40-soluble protein abundance (concentration: 2mM),NP40-soluble protein abundance (concentration: 4mM),NP40-soluble protein abundance (concentration: 6mM),NP40-soluble protein abundance (concentration: 8mM),NP40-soluble protein abundance (concentration: 10mM)
H0YEL0 and related entries (UniProt O14893),1.03 ± 0.051,1 ± 0.081,1.02 ± 0.058,1 ± 0.13,1.01 ± 0.099,1.03 ± 0.084
J3KNA0 and related entries (UniProt Q15070),0.948 ± 0.07,0.948 ± 0.057,0.962 ± 0.041,0.894 ± 0.052,0.99 ± 0.062,0.986 ± 0.088
H0Y5M1 and related entries (UniProt P04844),1.05 ± 0.11,1.01 ± 0.088,0.977 ± 0.077,0.978 ± 0.098,0.996 ± 0.068,0.982 ± 0.054
H3BTB7 and related entries (UniProt Q5JPH6),0.989 ± 0.057,0.958 ± 0.052,0.962 ± 0.044,0.95 ± 0.096,0.957 ± 0.062,0.934 ± 0.036
K7EMK7 and related entries (UniProt Q04725),0.965 ± 0.12,1.07 ± 0.076,1.11 ± 0.094,1.03 ± 0.23,1.04 ± 0.11,1.04 ± 0.067
H7BXD5 and related entries (UniProt P28676),0.917 ± 0.06,0.968 ± 0.056,0.944 ± 0.03,0.835 ± 0.065,0.92 ± 0.042,0.942 ± 0.029
H0Y9X1 and related entries (UniProt Q96EY4),0.932 ± 0.1,0.943 ± 0.052,1.02 ± 0.09,1.22 ± 0.085,1.28 ± 0.062,1.41 ± 0.085
G5EA36 and related entries (UniProt P30260),1.04 ± 0.04,0.984 ± 0.036,0.941 ± 0.042,0.993 ± 0.1,0.998 ± 0.082,0.974 ± 0.061
K7ERW4 and related entries (UniProt Q6AI12),0.961 ± 0.17,0.991 ± 0.21,0.964 ± 0.29,0.872 ± 0.26,0.925 ± 0.2,0.942 ± 0.25
K7ERP1 and related entries (UniProt Q9GZN7),1.13 ± 0.061,1.05 ± 0.064,1.03 ± 0.054,1.01 ± 0.062,1.05 ± 0.056,1.05 ± 0.035
J3KNS1 and related entries (UniProt Q9UPW5),1.03 ± 0.034,1.04 ± 0.018,1.09 ± 0.011,1.09 ± 0.047,1.073 ± 0.0088,1.11 ± 0.048
K7ELQ9 and related entries (UniProt Q6UW68),1.04 ± 0.086,1.08 ± 0.075,1.04 ± 0.073,1.03 ± 0.11,1.09 ± 0.045,1.01 ± 0.045
J3QR07 and related entries (UniProt Q96MU7),0.95 ± 0.07,0.91 ± 0.071,0.838 ± 0.064,0.796 ± 0.05,0.697 ± 0.015,0.712 ± 0.034
H0Y659 and related entries (UniProt Q7Z6Z7),0.971 ± 0.01,0.967 ± 0.016,0.943 ± 0.012,0.938 ± 0.025,0.955 ± 0.032,0.949 ± 0.043
H0YDM4 and related entries (UniProt Q86VS8),0.931 ± 0.066,0.926 ± 0.028,0.914 ± 0.041,0.96 ± 0.076,0.944 ± 0.037,0.884 ± 0.041
I3L182 and related entries (UniProt Q9UQ35),1.34 ± 0.072,1.39 ± 0.075,1.48 ± 0.1,1.56 ± 0.12,1.49 ± 0.069,1.45 ± 0.032
H0Y362 and related entries (UniProt Q8NEW0),1.03 ± 0.066,1.02 ± 0.091,0.977 ± 0.066,0.912 ± 0.012,0.961 ± 0.03,0.983 ± 0.034
I3L072 and related entries (UniProt Q9BSJ5),0.939 ± 0.094,0.962 ± 0.048,0.963 ± 0.14,1.01 ± 0.17,0.977 ± 0.17,0.96 ± 0.1
I3L1P8 and related entries (UniProt Q02978),0.888 ± 0.16,0.863 ± 0.076,0.874 ± 0.015,0.79 ± 0.088,0.891 ± 0.048,0.957 ± 0.038
M0QWZ7 and related entries (UniProt Q9NP81),0.976 ± 0.055,0.995 ± 0.05,0.976 ± 0.076,0.991 ± 0.059,0.992 ± 0.058,0.968 ± 0.043
K7ESP4 and related entries (UniProt Q8WVC6),1.24 ± 0.12,1.26 ± 0.055,1.24 ± 0.059,1.25 ± 0.15,1.24 ± 0.026,1.23 ± 0.077
K7ESN3 and related entries (UniProt Q8N2G8),1.05 ± 0.14,0.969 ± 0.026,1.02 ± 0.077,1.02 ± 0.071,0.992 ± 0.12,0.989 ± 0.064
H3BMQ0 and related entries (UniProt P49815),1.01 ± 0.021,0.981 ± 0.029,0.959 ± 0.02,0.939 ± 0.066,0.955 ± 0.023,0.963 ± 0.018

# Retrieved one by one from the list above, 2 records:
Target,NP40-soluble protein abundance (concentration: 1mM),NP40-soluble protein abundance (concentration: 2mM),NP40-soluble protein abundance (concentration: 4mM),NP40-soluble protein abundance (concentration: 6mM),NP40-soluble protein abundance (concentration: 8mM),NP40-soluble protein abundance (concentration: 10mM)
J3KPC5 and related entries (UniProt P47736),0.924 ± 0.074,0.877 ± 0.057,0.881 ± 0.038,0.855 ± 0.066,0.849 ± 0.088,0.828 ± 0.082
H7BYF2 and related entries (UniProt Q9BVL2),0.915 ± 0.084,0.94 ± 0.018,0.955 ± 0.057,1.01 ± 0.073,0.932 ± 0.058,0.933 ± 0.025
